The values below come from publication PMC3402432.

Amino acid sequences for entries named in this document (tags omitted).
UniProt P03129: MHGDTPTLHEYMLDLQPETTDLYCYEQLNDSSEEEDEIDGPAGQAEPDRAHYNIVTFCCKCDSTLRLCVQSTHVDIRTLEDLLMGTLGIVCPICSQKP

The target of assay [1] is T1, GST-E7-Flag fusion protein of HPV5 E7 (human papillomavirus type 5 (HPV5)) (UniProt P06932).
T1 sequence: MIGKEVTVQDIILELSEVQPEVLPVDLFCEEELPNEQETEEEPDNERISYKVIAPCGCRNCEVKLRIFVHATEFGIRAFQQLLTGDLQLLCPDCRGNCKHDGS
Kind of assay: pull-down; 20 ug purified GST-E7-Flag incubated with 400 ug HaCaT lysate overnight at 4 C in binding buffer (20 mM Tris HCl pH 7.5, 0.6 mM EDTA, 70 mM NaCl, 0.01% NP-40, protease inhibitors); glutathione sepharose 4B 2 h at 4 C, five washes; immunoblot for pRb and GST; only the target purified.

The target in assay [2] is GST-E7-Flag fusion protein of HPV16 E7 (human papillomavirus type 16 (HPV16)) (UniProt P03129). Described as above.
Assay [3] addresses T1, GST-E7-Flag fusion protein of HPV5 E7 (human papillomavirus type 5 (HPV5)). Kind of assay: pull-down; 20 ug purified GST-E7-Flag incubated with 0.5 ug recombinant His-pRb overnight at 4 C in binding buffer (20 mM Tris HCl pH 7.5, 0.6 mM EDTA, 70 mM NaCl, 0.01% NP-40, protease inhibitors); glutathione sepharose 4B 2 h at 4 C, five washes; immunoblot for pRb, His and GST; both purified. Background: Immunoblotting shows a protein as a band on a membrane.

The target in assay [4] is GST-E7-Flag fusion protein of HPV16 E7 (human papillomavirus type 16 (HPV16)) (UniProt P03129). The description is as above.

Results are given in words; binding and its absence hold for the method and conditions named. For some of these results: Binding seen in cells or lysates may run through a third protein. Some entries that bind do so weakly or less than the wild type. For some of these results: Sequences can lack the tags named with a protein.

B1: retinoblastoma protein (pRb), endogenous in HaCaT keratinocytes (protein, UniProt P06400 1-928)
chain: MPPKTPRKTAATAAAAAAEPPAPPPPPPPEEDPEQDSGPEDLPLVRLEFEETEEPDFTALCQKLKIPDHVRERAWLTWEKVSSVDGVLGGYIQKKKELWGICIFIAAVDLDEMSFTFTELQKNIEISVHKFFNLLKEIDTSTKVDNAMSRLLKKYDVLFALFSKLERTCELIYLTQPSSSISTEINSALVLKVSWITFLLAKGEVLQMEDDLVISFQLMLCVLDYFIKLSPPMLLKEPYKTAVIPINGSPRTPRRGQNRSARIAKQLENDTRIIEVLCKEHECNIDEVKNVYFKNFIPFMNSLGLVTSNGLPEVENLSKRYEEIYLKNKDLDARLFLDHDKTLQTDSIDSFETQRTPRKSNLDEEVNVIPPHTPVRTVMNTIQQLMMILNSASDQPSENLISYFNNCTVNPKESILKRVKDIGYIFKEKFAKAVGQGCVEIGSQRYKLGVRLYYRVMESMLKSEEERLSIQNFSKLLNDNIFHMSLLACALEVVMATYSRSTSQNLDSGTDLSFPWILNVLNLKAFDFYKVIESFIKAEGNLTREMIKHLERCEHRIMESLAWLSDSPLFDLIKQSKDREGPTDHLESACPLNLPLQNNHTAADMYLSPVRSPKKKGSTTRVNSTANAETQATSAFQTQKPLKSTSLSLFYKKVYRLAYLRLNTLCERLLSEHPELEHIIWTLFQHTLQNEYELMRDRHLDQIMMCSMYGICKVKNIDLKFKIIVTAYKDLPHAVQETFKRVLIKEEEYDSIIVFYNSVFMQRLKTNILQYASTRPPTLSPIPHIPRSPYKFPSSPLRIPGGNIYISPLKSPYKISEGLPTPTKMTPRSRILVSIGESFGTSEKFQKINQMVCNSDRVLKRSAEGSNPPKPLKKLRFDIEGSDEADGSKHLPGESKFQQKLAEMTSTRTRMQKQKMNDSMDTSNKEEK
For the molecule B1, the binding entry in assay [1] and in assay [2] was “binds” throughout.

B2: purified recombinant His-pRb (protein, UniProt P06400 1-928)
chain: B1 chain
Regarding B2, the binding entry in assay [3] and in assay [4] was “binds” in each case.
